Data reported in PubChem BioAssay AID493014 (National Center for Advancing Translational Sciences (NCATS), 2011).
About 170 (0.05%) of roughly 340,000 compounds were called active. This list was built around the results that the source calls inconclusive (neither active nor inactive); the mix of calls is not that of the screen. Calls come from the whole dose curve; as a rule, active = well fitted inhibition curve with a large enough effect in the signal ratio, with a control signal flat (not every such curve was filed as active); inconclusive = small, poorly fitted or top-dose-only effect, or effect the other way, or a change in a side signal; inactive = flat fitted curve, though single readings scatter; the % refers to the signal ratio. A potency beside an inconclusive call is a rough fit, not a confirmed value.

Test: qHTS Assay to Find Inhibitors of Chronic Active B-Cell Receptor Signaling;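 for activity change, negative = inhibition: plate controls were basal doxycycline-induced cells for no effect and cells given 10 µM MG132 for full effect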
Settings: ABC-DLBCL IkBa-CBG/CBR reporter, luminescence ratio (green luciferase fused to IkBa over red control in TMD8 lymphoma cells), 4 h; activity change, negative = inhibition: at 46.1 µM (top of the series) unless noted
Outline: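 Concentration-response series (up to 46 uM) were applied to TMD8 dual-reporter cells for 4 h at 37C with doxycycline. Green/red ratio, after filter-overlap correction, defined %Activity; red signal alone was normalised to basal cells and zero luminescence.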
Potency is the fitted concentration of half-maximal effect.

Row | Structure (SMILES) | Potency | activity change, negative = inhibition
1 | CC1CCCCC12NC(=O)N(CC(=O)Nc1nccs1)C2=O (stereo not given) | inconclusive: 29.1 µM [falling, partial curve, poor fit] | 
2 | O=S(=O)(NCCc1c[nH]c2ccccc12)c1ccccc1 |  | inconclusive: -0.968%
3 | CSc1nc2ccc(Br)cc2[nH]1 |  | inconclusive: 12.6%
4 | O=C(CSc1nnc(NCc2ccccc2)s1)c1ccco1 |  | inconclusive: -0.602%
5 | CCN1CCN(CC(=O)Nc2cc3c(cc2C(C)=O)OCO3)CC1 |  | inconclusive: 4.77%
6 | CN1/C(=C\C(=O)Nc2ccc(Cl)cc2)C(C)(C)c2ccccc21 |  | inconclusive: 22.3%
7 | CC[C@]12c3[nH]c4ccc(Cl)cc4c3CCN1C(=O)[C@@H](CC(=O)NC/C=C(\C)CCC=C(C)C)C[C@@H]2C(=O)N1CCN(C(=O)c2ccco2)CC1 |  | inconclusive: 1.85%
8 | COCCn1c(C)cc(C(=O)CSc2nc(C)cc(C)c2C#N)c1C |  | inconclusive: 3.21%
9 | O=C(c1ccccc1)C1CCN(C(=O)c2ccco2)CC1 |  | inactive: 3.49%
10 | O=C(NCCc1ccc(Cl)cc1)C1CCN(S(=O)(=O)c2ccc(Br)s2)CC1 | inconclusive: 35.5 µM [falling, single point] | 
11 | C/C(=N\NC(=O)C1COc2ccccc2O1)c1ccc(C)o1 (stereo not given) | inconclusive: 5.8 µM [rising, single point] | 
12 | CSCCC(NC(=O)c1cccc(S(=O)(=O)N2CCOCC2)c1)c1nc2ccccc2[nH]1 (stereo not given) |  | inconclusive: 6.2%
13 | CN1CCC(=NNC(=O)c2ccco2)CC1 | inconclusive: 35.5 µM [falling, single point] | 
14 | O=C(CSc1nnc(Cc2ccccc2)n1C1CCCCC1)N1CCOCC1 |  | inconclusive: -17.9%
15 | COc1cccc(CNC(=O)CCNS(=O)(=O)c2cccc3nonc23)c1 | inconclusive: 11.2 µM [falling, single point] | 
16 | N=c1c(C(=O)NCCc2ccccc2)cc2c(=O)n3ccccc3nc2n1CC1CCCO1 (stereo not given) |  | inconclusive: 5.95%
17 | CCOc1cccc(N)c1 |  | inconclusive: 23.2%
18 | COc1ccc(CNC(=O)c2cc3c(=O)n4ccccc4nc3n(CC3CCCO3)c2=N)cc1 (stereo not given) |  | inconclusive: 3.88%
19 | CN(C)c1cc2c(cc1NS(=O)(=O)c1ccccc1)n(C)c(=O)n2C |  | inconclusive: -18.2%
20 | CCNCc1cc(OCC)c(OCC(=O)NCCc2ccccc2)cc1Cl |  | inconclusive: 1.47%
21 | Cc1cccc2sc(N(CCCN(C)C)C(=O)c3ccco3)nc12 |  | inconclusive: 9.84%
22 | CCN(CC)C(=O)Cn1c(=O)n(CCC(=O)Nc2ccc(F)cc2)c(=O)c2sccc21 |  | inconclusive: -13%
23 | O=CN1Cc2[nH]c3ccccc3c2N(c2ccc(Cl)cc2)C1=O | inconclusive: 5.01 µM [falling, partial curve, poor fit] | 
24 | CC(=O)Nc1ccc(NC(=O)C(c2ccccc2)c2ccccc2)cc1 |  | inactive: 4.02%
25 | O=C(/C=C/c1cccc(Oc2ccccc2)c1)N1CCOCC1 |  | inconclusive: 2.04%
26 | O=C(c1cccn2c(=O)c3cc(Cl)ccc3nc12)N1CCN(Cc2ccc3c(c2)OCO3)CC1 |  | inactive: 2.85%
27 | O=C(Cn1ccc([N+](=O)[O-])n1)c1ccccc1 |  | inconclusive: 13.1%

Row | Structure (SMILES) | Potency | activity change, negative = inhibition
28 | O=C(Nc1nnc(SCc2ccc(F)cc2)s1)c1ccc2ncsc2c1 | inconclusive: 18.4 µM [falling, partial curve] | 
29 | COc1ccc(C(=O)Nc2ccc(OCC(F)(F)C(F)F)c(C(F)(F)F)c2)cc1OC |  | inconclusive: -0.464%
30 | CSC1=C(C#N)C2(CCCC2)C(C#N)=C(N)N1 |  | inconclusive: 1.13%
31 | COc1ccc(C(=O)Nc2nc3c(s2)CCCC3)cc1S(=O)(=O)N1CCCc2ccccc21 |  | inconclusive: 6.57%
32 | COc1ccc(-c2nn(-c3ccccc3)cc2C(=O)NC2CC2)cc1 |  | inconclusive: 4.89%
33 | COc1ccc(C(=O)O)cc1NC(=S)NC(=O)CSc1ccc(Cl)cc1 |  | inconclusive: -6.62%
34 | CCN(CC)CCN(C(=O)c1ccc(S(=O)(=O)N(C)C2CCCCC2)cc1)c1nc2c(C)cccc2s1 |  | inconclusive: -1.23%
35 | C#CCOCCOCCOCCNc1nc(N2CCN(C(=O)[C@H]([C@@H](C)CC)n3cc([C@@H](N)Cc4ccc(O)cc4)nn3)CC2)nc(N2CCN(C(=O)[C@H](Cc3ccc(O)cc3)n3cc([C@@H](N)C(C)CC)nn3)CC2)n1 (stereo not given in full) |  | inconclusive: 10.2%
36 | Cc1nc2c(-c3ccccc3)c(C)[nH]n2c(=O)c1Cc1ccccc1 |  | inactive: 1.81%
37 | CCCNC(=O)C(CC)NC(=O)c1cccc([N+](=O)[O-])c1 (stereo not given) |  | inactive: -3.2%
38 | O=c1[nH][nH]c(=S)n1-c1ccccc1C(F)(F)F |  | inconclusive: 15.9%
39 | O=C(COc1ccccc1)NC1CCN(Cc2ccccc2)CC1 |  | inconclusive: 3.85%
40 | Cc1ccc(-c2nn(C)c(=O)c3ccccc23)cc1S(=O)(=O)N1CCOCC1 |  | inactive: -0.133%
41 | COc1ccc(N=Cc2c(O)[nH]c3ccccc23)cc1 | inconclusive: 22.4 µM [falling, single point] | 
42 | COc1ccc(CCNC(=O)c2cc(S(=O)(=O)N(C)c3ccccc3)ccc2Cl)cc1 |  | inconclusive: 1.21%
43 | CC(=O)c1ccccc1NC(=O)CSc1nnc2ccccn12 | inconclusive: 0.146 µM [falling, full curve, poor fit] | 
44 | COc1cc(NC(=S)NC(=O)c2ccccc2C)ccc1NC(=O)c1cccs1 | inconclusive: 5.8 µM [falling, partial curve] | 
45 | O=C(Nc1ccnn1C1CCN(C/C=C/c2ccccc2)CC1)c1cccc(F)c1 |  | inactive: 0.272%
46 | COc1ccc(-c2nn(-c3ccccc3)cc2CN2CCCO2)c(F)c1 |  | inconclusive: 4.23%
47 | Cc1ccsc1C(=O)OCc1nc2ccsc2c(=O)[nH]1 | inconclusive: 29.1 µM [falling, single point] | 
48 | Cc1cccc(/C=N/NC(=O)c2ccc(F)cc2)n1 |  | inconclusive: -17.9%
49 | O=C(O)CCCC(=O)Nc1ccccc1Oc1ccccc1 |  | inconclusive: -9.79%
50 | OC(COc1ccc2c(c1)OCO2)CN1CCN(c2ccccc2)CC1 (stereo not given) | inconclusive: 3.16 µM [falling, partial curve, poor fit] | 
51 | Cc1cc(OCC(=O)N(C)C2CCCCC2)cc(C)c1Cl |  | inconclusive: 13%
52 | Cc1c(NS(=O)(=O)c2ccc3c(c2)n(C)c(=O)n3C)c(=O)n(-c2ccccc2)n1C |  | inconclusive: -0.866%
53 | COc1ccc(/C=N/NC(=O)c2cccc(NC(=O)c3ccc(Cl)cc3)c2)c(OC)c1 |  | inconclusive: -5.7%
54 | CCOc1ccc(C2=Nn3c(nnc3-c3ccco3)SC2)cc1 |  | inactive: -0.575%

In another format: entries from further up.
CCOc1cccc(N)c1
  activity change, negative = inhibition: inconclusive: 23.2%
Cc1cc(OCC(=O)N(C)C2CCCCC2)cc(C)c1Cl
  activity change, negative = inhibition: inconclusive: 13%

Compounds 43–44, reprinted for reference:
Row | Structure (SMILES) | Potency | activity change, negative = inhibition
43 | CC(=O)c1ccccc1NC(=O)CSc1nnc2ccccn12 | inconclusive: 0.146 µM [falling, full curve, poor fit] | 
44 | COc1cc(NC(=S)NC(=O)c2ccccc2C)ccc1NC(=O)c1cccs1 | inconclusive: 5.8 µM [falling, partial curve] | 

Carrying on.

Row | Structure (SMILES) | Potency | activity change, negative = inhibition
55 | CC/C(C)=N\Nc1nc(-c2cc3cc(OC)ccc3oc2=O)cs1 |  | inconclusive: 8.59%
56 | CC(C)NC(=O)C1CCN(C2CCN(C(=O)c3cc4c(s3)CCCCC4)CC2)CC1 |  | inactive: -0.719%
57 | COc1cc(C=O)ccc1OCCCOc1ccc([N+](=O)[O-])cc1 |  | inactive: 5.76%
58 | CC(=O)Nc1ccc(NC(=O)CSc2nnc3ccc(-c4ccccn4)nn23)cc1 |  | inconclusive: -16%
59 | COc1cc2ccccc2cc1C(=O)Nc1ccc(O)cc1 | inconclusive: 31.6 µM [rising, single point] | 
60 | O=C(CN1CCc2ccccc21)NN1CC(=O)N(c2ccc(Cl)cc2)CC1=O |  | inconclusive: 13.4%
61 | CCC1COCCS(=O)(=O)N1Cc1ccc(Cl)cc1 (stereo not given) |  | inconclusive: -20.6%
62 | COc1ccc(CCCC(=O)N/N=C/c2ccccc2OC)cc1 | inconclusive: 12.6 µM [falling, partial curve, poor fit] | 
63 | Cc1ccc(C(C2=C(O)CC(C)(C)CC2=O)C2C(=O)CC(C)(C)CC2=O)s1 (stereo not given) |  | inconclusive: 4.58%
64 | O=C(Nc1nc(-c2ccc(-c3ccccc3)cc2)cs1)C1=COCCO1 | inconclusive: 1.3 µM [falling, full curve, poor fit] | 
65 | O=C(NCCO)C(=O)Nc1cc2c3c(c1)CCC(=O)N3CCC2 |  | inactive: -13.7%
66 | CCCn1nc(NC(=O)c2ccccn2)c2cc3cc(C)ccc3nc21 |  | inconclusive: 6.69%
67 | COc1cccc2sc3ccc(C#CC4(N)CCCCC4)cc3c(=O)c12 | inconclusive: 0.708 µM [rising, full curve] | 
68 | Cc1ccc(-c2nnc(N3CCC(C)CC3)c3ccccc23)cc1 |  | inactive: -0.647%
69 | CCOC(=O)N1CCN(c2ccc(C(=O)c3cccc(F)c3)cc2)CC1 |  | inactive: -4.31%
70 | CCN(CC)CCN(C(=O)Cn1nnc(-c2ccc(C)o2)n1)C(C(=O)NC1CCCC1)c1ccc(F)cc1 (stereo not given) |  | inactive: -4.59%
71 | N#CC1=C(N)N(c2ccccc2)C2=C(C(=O)CCC2)C1c1ccccc1 (stereo not given) |  | inconclusive: -27.6%
72 | Nn1c(SCC(=O)Nc2cccc(Br)c2)nnc1C1CC1 |  | inactive: 6.76%
73 | Cc1cnc(-c2nnc(N(C)C(=O)C3CCOC3)s2)cn1 (stereo not given) |  | inactive: -5.92%
74 | CCCCn1c(=N)n(CC(O)COc2ccccc2)c2ccccc21 (stereo not given) |  | inconclusive: -5.12%
75 | CNc1nc(Sc2ccccc2)cc(C(F)(F)F)n1 |  | inconclusive: -1.8%
76 | Nn1c(SCC(=O)NCC2CCCO2)nnc1-c1ccco1 (stereo not given) |  | inconclusive: 2.47%
77 | Cc1ccc(NC(=S)NC(=O)C2CCCCC2)c(Br)c1 |  | inconclusive: 3.5%
78 | CO/N=C(\C(=O)O)c1csc(NN=C(C)C)n1 |  | inconclusive: 6.36%
79 | O=C(O)CCCC(=O)Nc1nc(-c2ccccc2)cs1 | inconclusive: 6.31 µM [falling, full curve] | 
80 | C#CCOCCOCCOCCNc1nc(N2CCN(C(=O)CCCCCCCCCCNC(=O)Cn3cc(CCCCCN)nn3)CC2)nc(N2CCN(C(=O)CCCCCCCCCCNC(=O)[C@H]([C@@H](C)CC)n3cc(CCCCN=C(N)N)nn3)CC2)n1 |  | inconclusive: 18.1%
